Assay results taken from article PMC9157164.
Results are given in words; binding and its absence hold for the method and conditions named. Binding seen in cells or lysates may run through a third protein.

Chains of the proteins cited; added tags and fusions are not shown.
UniProt B2RWS6: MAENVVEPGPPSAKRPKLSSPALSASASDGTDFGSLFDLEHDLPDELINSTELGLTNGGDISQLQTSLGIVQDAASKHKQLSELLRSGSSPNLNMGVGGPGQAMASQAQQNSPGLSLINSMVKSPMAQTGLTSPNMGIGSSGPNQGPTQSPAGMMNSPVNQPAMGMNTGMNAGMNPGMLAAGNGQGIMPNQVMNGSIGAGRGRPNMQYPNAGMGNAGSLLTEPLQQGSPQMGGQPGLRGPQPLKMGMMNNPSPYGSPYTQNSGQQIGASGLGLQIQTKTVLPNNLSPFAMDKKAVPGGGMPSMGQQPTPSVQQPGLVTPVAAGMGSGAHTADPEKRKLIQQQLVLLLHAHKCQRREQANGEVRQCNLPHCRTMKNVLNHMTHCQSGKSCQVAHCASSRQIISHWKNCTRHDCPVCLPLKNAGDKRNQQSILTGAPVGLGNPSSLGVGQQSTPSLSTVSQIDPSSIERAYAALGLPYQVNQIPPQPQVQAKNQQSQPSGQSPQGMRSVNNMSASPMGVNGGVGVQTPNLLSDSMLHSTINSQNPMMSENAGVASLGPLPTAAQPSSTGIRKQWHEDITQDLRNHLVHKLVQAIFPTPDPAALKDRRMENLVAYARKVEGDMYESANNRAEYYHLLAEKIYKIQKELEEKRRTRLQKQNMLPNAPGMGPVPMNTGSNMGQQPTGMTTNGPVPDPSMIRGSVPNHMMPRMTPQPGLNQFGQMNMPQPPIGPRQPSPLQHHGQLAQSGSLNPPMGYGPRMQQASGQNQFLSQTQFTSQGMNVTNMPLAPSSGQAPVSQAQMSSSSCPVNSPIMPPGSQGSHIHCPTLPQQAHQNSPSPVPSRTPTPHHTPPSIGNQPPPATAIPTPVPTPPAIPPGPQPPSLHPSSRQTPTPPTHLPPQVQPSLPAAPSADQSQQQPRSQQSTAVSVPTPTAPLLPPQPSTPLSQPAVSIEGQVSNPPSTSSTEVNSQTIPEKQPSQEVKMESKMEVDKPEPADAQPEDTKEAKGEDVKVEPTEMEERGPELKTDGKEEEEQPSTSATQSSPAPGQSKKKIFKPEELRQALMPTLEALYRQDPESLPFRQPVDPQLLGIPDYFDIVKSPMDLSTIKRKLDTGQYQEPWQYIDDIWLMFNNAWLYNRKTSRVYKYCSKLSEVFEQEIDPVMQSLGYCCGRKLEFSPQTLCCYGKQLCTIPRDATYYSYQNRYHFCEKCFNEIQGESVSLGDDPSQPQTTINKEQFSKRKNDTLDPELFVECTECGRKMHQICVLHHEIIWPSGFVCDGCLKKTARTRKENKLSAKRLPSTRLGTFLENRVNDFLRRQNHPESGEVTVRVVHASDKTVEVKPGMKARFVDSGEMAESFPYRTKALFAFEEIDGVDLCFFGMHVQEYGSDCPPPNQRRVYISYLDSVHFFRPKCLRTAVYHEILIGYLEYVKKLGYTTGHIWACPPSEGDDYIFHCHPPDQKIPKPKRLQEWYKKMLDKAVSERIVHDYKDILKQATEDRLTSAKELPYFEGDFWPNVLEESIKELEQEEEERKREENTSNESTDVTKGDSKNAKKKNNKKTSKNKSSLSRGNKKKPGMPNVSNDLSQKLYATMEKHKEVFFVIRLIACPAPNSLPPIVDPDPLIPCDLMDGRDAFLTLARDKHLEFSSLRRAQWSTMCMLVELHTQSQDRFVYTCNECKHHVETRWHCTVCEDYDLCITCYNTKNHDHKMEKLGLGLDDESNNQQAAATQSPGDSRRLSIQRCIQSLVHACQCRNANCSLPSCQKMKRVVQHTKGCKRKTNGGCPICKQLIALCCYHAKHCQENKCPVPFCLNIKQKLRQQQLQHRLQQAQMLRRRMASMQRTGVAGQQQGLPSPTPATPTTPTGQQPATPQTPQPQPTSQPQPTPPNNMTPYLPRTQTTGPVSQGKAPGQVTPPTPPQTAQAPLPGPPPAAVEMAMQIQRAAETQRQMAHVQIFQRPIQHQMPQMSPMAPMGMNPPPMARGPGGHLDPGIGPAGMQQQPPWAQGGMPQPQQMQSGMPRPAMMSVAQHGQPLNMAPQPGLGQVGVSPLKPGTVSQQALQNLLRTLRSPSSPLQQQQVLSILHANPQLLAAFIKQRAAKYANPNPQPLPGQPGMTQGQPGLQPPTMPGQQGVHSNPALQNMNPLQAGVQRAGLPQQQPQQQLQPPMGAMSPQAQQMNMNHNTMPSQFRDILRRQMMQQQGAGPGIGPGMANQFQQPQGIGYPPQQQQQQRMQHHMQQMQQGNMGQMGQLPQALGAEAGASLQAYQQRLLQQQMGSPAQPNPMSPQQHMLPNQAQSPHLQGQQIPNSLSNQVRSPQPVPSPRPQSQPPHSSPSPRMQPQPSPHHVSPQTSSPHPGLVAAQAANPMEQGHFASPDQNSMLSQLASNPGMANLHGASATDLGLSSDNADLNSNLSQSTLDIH
UniProt Q8K4B0: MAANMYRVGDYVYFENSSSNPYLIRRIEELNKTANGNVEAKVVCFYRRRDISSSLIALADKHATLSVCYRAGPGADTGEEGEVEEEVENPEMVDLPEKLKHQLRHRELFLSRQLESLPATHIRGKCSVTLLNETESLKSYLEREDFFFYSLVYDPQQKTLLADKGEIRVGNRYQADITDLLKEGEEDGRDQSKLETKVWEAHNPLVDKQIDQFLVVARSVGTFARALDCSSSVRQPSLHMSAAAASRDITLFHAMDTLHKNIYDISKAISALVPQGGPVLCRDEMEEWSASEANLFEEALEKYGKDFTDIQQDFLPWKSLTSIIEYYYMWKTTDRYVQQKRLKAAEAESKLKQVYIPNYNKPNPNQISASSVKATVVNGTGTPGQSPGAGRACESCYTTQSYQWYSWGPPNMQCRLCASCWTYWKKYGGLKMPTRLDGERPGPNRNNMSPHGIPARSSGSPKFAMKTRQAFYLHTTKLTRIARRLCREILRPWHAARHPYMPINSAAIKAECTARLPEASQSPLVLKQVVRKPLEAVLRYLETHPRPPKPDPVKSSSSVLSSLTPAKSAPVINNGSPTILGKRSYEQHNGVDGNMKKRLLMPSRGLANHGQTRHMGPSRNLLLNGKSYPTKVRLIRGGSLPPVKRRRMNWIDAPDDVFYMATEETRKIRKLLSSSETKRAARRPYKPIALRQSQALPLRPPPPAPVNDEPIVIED
UniProt O09106: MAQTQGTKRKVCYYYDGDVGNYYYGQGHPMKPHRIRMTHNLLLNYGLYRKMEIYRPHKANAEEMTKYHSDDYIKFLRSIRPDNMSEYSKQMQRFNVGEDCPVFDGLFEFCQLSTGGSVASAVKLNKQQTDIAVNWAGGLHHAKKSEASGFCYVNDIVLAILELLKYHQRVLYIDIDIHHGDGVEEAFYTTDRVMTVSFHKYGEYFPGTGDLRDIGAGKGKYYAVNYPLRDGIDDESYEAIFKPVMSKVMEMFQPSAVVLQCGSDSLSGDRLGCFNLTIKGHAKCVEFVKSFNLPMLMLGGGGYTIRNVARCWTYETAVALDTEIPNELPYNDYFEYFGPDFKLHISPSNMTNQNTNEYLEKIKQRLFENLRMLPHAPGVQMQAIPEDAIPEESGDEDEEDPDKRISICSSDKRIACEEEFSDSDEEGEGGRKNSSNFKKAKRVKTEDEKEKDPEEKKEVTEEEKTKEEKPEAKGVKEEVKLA

Biological target: p300 (mouse (endogenous in E14 ESCs)) (UniProt B2RWS6)
Assay: co-IP; whole-cell lysate of mouse ESCs in F lysis buffer (20 mM Tris pH 7.9, 500 mM NaCl, 0.1% NP40) adjusted to 300 mM NaCl; 200 ug protein extract incubated with antibodies; Western blot

Row | binding | Substance
1 | no binding | MTA1 (from UniProt Q8K4B0 1-715)
2 | no binding | HDAC1 (from UniProt O09106 1-482) (enzyme)
